Assay results: patent US20200138968 (published 2020)

Assay: general procedure: solution-phase peptide synthesis; HOBt/DIPEA/pyridine (PNP carbonate); DIC/HOBt
Conditions: conjugation step

Triacryloylhexahydro triazine-mercaptoacetic acid-valine-citrulline-p-aminobenzyloxycarbonyl Monomethyl auristatin E
conjugation yield (run 1): 52%
conjugation yield (run 2): 65.27%
